# Measurements published in PubChem BioAssay AID1117319 (Southern Research Institute, 2015).
# Sequences of proteins named here, by UniProt entry; tags and fusion partners are left off. A change or cut given only in a name is not applied to a line headed by its entry.
# UniProt P69720: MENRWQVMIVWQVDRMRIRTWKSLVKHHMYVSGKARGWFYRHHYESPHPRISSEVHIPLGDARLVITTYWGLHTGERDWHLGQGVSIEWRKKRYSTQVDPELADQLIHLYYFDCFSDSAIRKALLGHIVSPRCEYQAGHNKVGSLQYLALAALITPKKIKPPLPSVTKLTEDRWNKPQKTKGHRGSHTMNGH
# UniProt P69721: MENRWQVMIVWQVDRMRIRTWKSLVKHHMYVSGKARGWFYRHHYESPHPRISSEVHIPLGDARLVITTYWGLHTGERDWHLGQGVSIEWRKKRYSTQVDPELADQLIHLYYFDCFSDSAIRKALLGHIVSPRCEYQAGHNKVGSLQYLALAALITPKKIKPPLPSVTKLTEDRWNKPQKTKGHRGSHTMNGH
# UniProt P69722: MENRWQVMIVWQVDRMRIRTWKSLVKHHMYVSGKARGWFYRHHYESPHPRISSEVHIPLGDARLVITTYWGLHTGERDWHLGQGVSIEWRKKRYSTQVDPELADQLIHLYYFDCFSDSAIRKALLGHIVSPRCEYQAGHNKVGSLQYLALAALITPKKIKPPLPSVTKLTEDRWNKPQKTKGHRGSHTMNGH
# UniProt P69723: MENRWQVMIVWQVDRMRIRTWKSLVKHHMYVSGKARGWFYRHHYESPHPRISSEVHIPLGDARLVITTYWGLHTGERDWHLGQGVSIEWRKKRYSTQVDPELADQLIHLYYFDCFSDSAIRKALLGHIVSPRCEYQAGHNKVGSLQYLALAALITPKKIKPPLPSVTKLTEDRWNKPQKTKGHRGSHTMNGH
# UniProt Q9HC16: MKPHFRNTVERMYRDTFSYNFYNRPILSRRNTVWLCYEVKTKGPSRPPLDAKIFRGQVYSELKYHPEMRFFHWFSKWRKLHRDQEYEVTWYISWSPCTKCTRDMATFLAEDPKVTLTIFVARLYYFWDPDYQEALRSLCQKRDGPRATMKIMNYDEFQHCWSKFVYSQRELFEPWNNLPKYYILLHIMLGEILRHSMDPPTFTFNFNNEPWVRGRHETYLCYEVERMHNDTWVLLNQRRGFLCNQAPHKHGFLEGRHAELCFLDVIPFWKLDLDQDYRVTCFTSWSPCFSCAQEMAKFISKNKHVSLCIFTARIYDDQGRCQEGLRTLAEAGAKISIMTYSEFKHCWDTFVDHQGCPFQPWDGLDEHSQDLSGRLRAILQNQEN
# Values joined by “and” are separate entries in the source; they are usually repeats but may differ in a detail not shown here. Identical values can stand only once. Hit rate of the full screen: of about 260,000 compounds, about 1,500 (0.58%) were called active. Inconclusive results, whose numbers are uncertain, are shown with a selection of clear calls.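 How the source made its calls: active means inhibition above a set limit at one or more doses, reproduced on every date tested; inconclusive means results disagree between test dates, or hit never tested in dose response; inactive means the rest.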
# Target: Virion infectivity factor (Human immunodeficiency virus type 1 group M subtype B (isolate BH10)) + Virion infectivity factor (Human immunodeficiency virus type 1 group M subtype B (isolate BRU/LAI)) + Virion infectivity factor (Human immunodeficiency virus type 1 group M subtype B (isolate PCV12)) + Virion infectivity factor (Human immunodeficiency virus type 1 group M subtype B (isolate HXB2)) + DNA dC->dU-editing enzyme APOBEC-3G (Homo sapiens) (UniProt P69720+P69721+P69722+P69723+Q9HC16)
# Test: inhibitors of Vif binding to APOBEC3G peptide, primary screen, biochemical, TR-FRET, GST-Vif 1-94, biotin-A3G peptide, dose response retest (AID 1117319);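 further: Vif residues 1-94 fused to GST binding biotinylated APOBEC3G peptide 110-148; 0% = full assay without inhibitor and 100% = GST in place of GST-Vif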
# Conditions: stronger effect = higher value
row,Compound,inhibition
1,COCCn1c(N)c(C(=S)NC(=O)c2cccs2)c(=O)[nH]c1=O,inconclusive: 47.7%
2,COc1ccc(Cc2nnc(NC(=O)Cc3cccs3)s2)cc1OC,inconclusive: 36.2%
3,CCCC1=C/C(=C/c2ccc(-c3ccccc3OC)o2)C(=O)O1,inconclusive: 52.4%
4,CC(C)[C@H](NC(=O)OCc1ccccc1)C(=O)OCC(=O)N1CCN(c2ccc(F)cc2)CC1,inactive: -1.08%
5,Cc1ccccc1Nc1nnc(SCC(=O)Nc2ncc(C(F)(F)F)cc2Cl)s1,inconclusive: 34.2%
6,Cc1ccccc1C1C(C#N)=C2N=C(N)c3c(sc4c3CCCCC4)N2C2=C1C(=O)CCC2 (stereo not drawn),inconclusive: 38.8%
7,CCN1C(=O)Cc2cc(S(=O)(=O)N3CCOCC3)ccc21,inconclusive: 35.8%
8,CCc1ncc(C(O)c2cccc3ccccc23)n1C (stereo not drawn),inconclusive: 35.8%
9,O=C(NC(=S)N1CCc2ccccc21)c1ccccc1,inconclusive: 39.7%
10,CC1=NN(c2ccc(N)cc2)C(=O)C1,inconclusive: 48%
11,Cc1ccc(NC(=O)/C(=C\c2ccc([N+](=O)[O-])cc2)NC(=O)c2ccccc2)cc1,inconclusive: 44.6%
12,COC(=O)c1cc(=O)nc2scc(C)n12,inactive: 5.72%
13,CCCN1CCN(C(=O)Cn2c(=O)oc3cc(S(=O)(=O)NCc4ccccc4)ccc32)CC1,inconclusive: 51.2%
14,Clc1ccc(OCCCn2cncn2)cc1Cl,inconclusive: 50%
15,Cc1ccc(/C=C2\CCC3=C2OC(N)=C(C#N)C3c2ccc(C)cc2)cc1 (stereo not drawn),inactive: 20.9%
16,NC(=Nc1ccc(N)cc1)C(N)=Nc1ccc(N)cc1,inconclusive: 41.9%
17,Cc1cc(C)cc(-n2c(=O)c3sccc3n(CC(=O)NCc3ccco3)c2=O)c1,inconclusive: 59.4%
18,Cc1ccc(-n2nc3c(c2NC(=O)C2CC2)CS(=O)(=O)C3)cc1,inconclusive: 47.9%
19,CCN(CC)CCN(C(=O)Cn1nnc(-c2ccc(OC)c(OC)c2)n1)C(C(=O)NC1CCCC1)c1ccc(F)cc1 (stereo not drawn),inconclusive: 39.2%
20,COc1ccc2cc(C(C)=O)c(=O)oc2c1,inconclusive: 33.5%
21,Cc1ccc(N2CCN(CCCCN3C(=O)C4CCCN4C3=O)CC2)cc1 (stereo not drawn),inconclusive: 47.6%
22,CC(C)NS(=O)(=O)c1ccc(NC(=S)NC(=O)c2cccc([N+](=O)[O-])c2)cc1,inconclusive: 35.7%

row,Compound,inhibition
1,C/C(=N\Nc1nc(-c2ccccn2)nc2ccccc12)c1ccc(F)cc1,inconclusive: 45.8%
2,Cc1nn(C(C)C(=O)N2CCc3ccccc3C2)c(=O)c2cc3occc3n12 (stereo not drawn),inconclusive: 49.6%
3,CC(C)Cc1nc2n[nH]c(N)c2c2c1CCCC2,inconclusive: 33.2%
4,COc1cccc(-n2c(Cc3cc(=O)[nH]c(=O)[nH]3)nnc2SC(C)C)c1,inconclusive: 56.6%
5,O=C1C(=O)N(CCN2CCOCC2)C(c2ccncc2)/C1=C(/O)c1ccc2c(c1)OCO2 (stereo not drawn),inconclusive: 39.6%
6,Nn1c(=O)[nH]c2ccccc2c1=O,inconclusive: 36.6%
7,O=c1cc(-c2ccc([N+](=O)[O-])cc2)nc2cc(-c3ccc(Cl)cc3)[nH]n12,inconclusive: 47.4%
8,CC1=NN(Cc2ccccc2)C(=O)C1C(c1ccncc1)C(C#N)C#N (stereo not drawn),inconclusive: 58.7%
9,COc1cc(/C(O)=C(\C#N)c2nc3ccccc3[nH]2)cc(OC)c1OC,inactive: 3.24%
10,CN(C)CCn1nnc2c(=O)oc3ccccc3c21,inconclusive: 45.7%
11,Cc1ccc2[nH]c(=O)c(CN(CCCN3CCOCC3)Cc3nnnn3C3CCCC3)cc2c1,inconclusive: 40.2%
12,C=CCNc1nc(-c2ccccc2)nc(-n2ccnc2)n1,inconclusive: 57.4%
13,Cc1ccnc(NS(=O)(=O)c2cc([N+](=O)[O-])ccc2C)c1,inactive: -2.19%
14,O=C1/C(=C/c2ccco2)N=C(N2CCCCC2)N1c1ccccc1,inactive: 23.7%
15,COc1ccc(NC(=S)Nc2ccccn2)cc1,inconclusive: 38.3%
16,FC(F)(F)c1cnc(N2CCN(C(=S)NCc3ccccc3)CC2)c(Cl)c1,inactive: -5.24%
17,CCO[C@H]1OC(C(=O)NCc2ccccc2)=C[C@@H](C)[C@@H]1CCCO,inconclusive: 46.7%
18,CCOC(=O)COc1nc(-c2ccccc2)cc(-c2ccco2)c1C#N,inactive: 4.55%
19,CCOc1cccc(NC(=O)C2CC(=O)N(C)C(=Nc3cccc(F)c3)S2)c1 (stereo not drawn),inconclusive: 5.14%
20,N#Cc1c2c(c(-c3ccco3)[nH]c1=O)CCCC2,inconclusive: 25.1%
21,Cc1ccc(-c2[nH]n3c(=O)c4c(nc3c2C)CCCC4)cc1,inconclusive: 36.1%
22,CCSc1nnc(NC(=O)Nc2cccc(C)c2)s1,inconclusive: 57.6%

row,Compound,inhibition
1,NC(=O)c1ccsc1NC(=O)Cc1ccc([N+](=O)[O-])cc1,inconclusive: 62.6%
2,COc1ccc(-n2c(O)c(/C=N/NS(=O)(=O)c3cccc([N+](=O)[O-])c3)c3ccccc3c2=O)cc1OC,inconclusive: 65%
3,O=C(NC(Cc1c[nH]c2ccccc12)C(=O)O)c1ccco1 (stereo not drawn),inconclusive: 43.2%
4,O=C(CCC1CCCC1)c1c(O)c2ccccc2oc1=O,inconclusive: 56.9%
5,Cc1ccc(C)c(NC(=O)N2CCc3ccccc3C2)c1,inactive: -0.5%
6,CC1(C)CN(c2ccc(F)cc2)C1=O,inconclusive: 37.7%
7,CCn1c(SCC(=O)NC(C)c2ccccc2)nc2ccccc21 (stereo not drawn),inconclusive: 34.2%
8,CC(=O)c1cccc(NC(=O)c2cc3nc(C)cc(C)n3n2)c1,inconclusive: 53.5%
9,CC(C)S(=O)(=O)c1csc(NC(=O)Nc2ccc(Cl)cc2)c1,inconclusive: 53.3%
10,COc1ccc(O)c(C2(O)C(=O)c3ccccc3C2=O)c1,inconclusive: 51.9%
11,COc1c(Br)cc2c(C)c(C(=O)N3CCOCC3)oc2c1Br,inconclusive: 55.6%
12,CCOC(=O)CSC1=N/C(=C\c2ccc(OC)c(OC)c2)C(=O)N1C,inconclusive: 44.4%
13,CCOC(=O)C1=C(N)Oc2c(oc(CO)cc2=O)C1c1ccc(Cl)cc1 (stereo not drawn),inconclusive: 54.3%
14,COc1ccccc1N1CN(Cc2ccccc2)CNC1=S,inconclusive: 54.6%
15,COc1cc(C2/C(=C(\O)c3ccc4c(c3)CC(C)O4)C(=O)C(=O)N2CCCn2ccnc2)ccc1O (stereo not drawn),inconclusive: 53.7%
16,CCOc1ccc(NCc2nc3ccccc3n2CCOc2ccccc2)cc1,inactive: 11.4%
17,Cc1nn2c(=O)cc(CSc3nc4ccccc4[nH]3)nc2s1,inconclusive: 44.6%
18,CN(C)CCCN1C(=O)C(O)=C(C(=O)c2cc3ccccc3o2)C1c1ccccc1 (stereo not drawn),inconclusive: 44.9%
19,COc1cc(/C=C/C(=O)O)cc(S(=O)(=O)NCCCC(=O)O)c1OC,inconclusive: 53.2%
20,O=C(CN1CCOCC1)Nc1cccc(S(=O)(=O)N2CCCCCC2)c1,inconclusive: 40%
21,CCCCn1c(CCC(=O)O)nc2c1c(=O)[nH]c(=O)n2CCC,inconclusive: 44.3%
22,CCC(C)[C@H](NC(=O)C1CCN(C(=O)[C@H](Cc2ccccc2)NC(=O)OC(C)(C)C)CC1)C(=O)O (stereo partly drawn),inactive: 7.73%

row,Compound,inhibition
1,COc1ccc(N2CCN(C(=O)COC(=O)CNC(=O)c3ccccc3)CC2)cc1,inactive: 3.12%
2,CCC(c1nnnn1C1CCCCC1)N(Cc1ccco1)Cc1cc2ccc(OC)cc2[nH]c1=O (stereo not drawn),inconclusive: 33%
3,COc1ccccc1CNc1cc(-c2ccccc2)ccc1OC,inconclusive: 48.2%
4,O=C(O)c1ccc2cccnc2n1,inconclusive: 42%
5,CCC(CC)C(=O)Nc1cccc(/C(C)=N/NC(=O)c2ccccc2Cl)c1,inconclusive: 46.2%
6,Cc1cc(NCc2ccc3c(c2)OCO3)n2nc(C)nc2n1,inconclusive: 40.5%
7,CN(C)c1ccc(/C=C(/NC(=O)c2ccccc2)C(=O)N/N=C/c2ccc([N+](=O)[O-])c(O)c2)cc1,inactive: 15.2% and inactive: -3.76%
8,O=C(NC1CCCCC1)c1cccc(Cn2cc(Cl)cn2)c1,inconclusive: 34.2%
9,Cc1nc(NC(=O)COC(=O)/C=C/c2ccco2)c(Cl)cc1Cl,inactive: 20.2%
10,CCN1CCN(CCn2c(=S)[nH]c3ccccc3c2=O)CC1,inconclusive: 35.7%
11,O=S(=O)(c1ccc(F)c(Cl)c1)N1CCCC1,inconclusive: 47%
12,Cc1ccc(C)c2[nH]c(=O)c(CN(Cc3nnnn3C3CCCCC3)CC3CCCO3)cc12 (stereo not drawn),inconclusive: 58.1%
13,COc1cccc2cc(C(C)N(CCCN3CCOCC3)C(=S)Nc3c(C)cccc3C)oc12 (stereo not drawn),inconclusive: 35.6%
14,Cc1cc2cc(C(c3nnnn3Cc3ccco3)N3CCc4ccccc43)c(=O)[nH]c2cc1C (stereo not drawn),inconclusive: 43.3%
15,COC(=O)C1=C(N)Oc2cc(N(C)C)ccc2C1c1ccccc1OC (stereo not drawn),inconclusive: 57.8%
16,N#Cc1ccsc1NC(=O)CN1CCN(c2ccc(O)cc2)CC1,inconclusive: 45.7%
17,CCC(=O)N1CCCc2cc(S(=O)(=O)N3CCN(c4ccccn4)CC3)ccc21,inconclusive: 41.9%
18,CC(C)C[C@H](NC(=O)NC1CCCc2ccccc21)C(=O)O (stereo partly drawn),inconclusive: 37%
19,COc1cccc(C(=O)c2c[nH]c(C(=O)NCCCN(C)C)c2)c1,inconclusive: 38.3%
20,CCCNc1[nH]c(=O)n(C)c(=O)c1N=O,inconclusive: 43.1%
21,Cc1cc(C)n2nc(C(=O)OCC(=O)c3cc(C)n(C)c3C)nc2n1,inconclusive: 38.5%
22,COc1ccccc1-n1c(CNC(=O)c2ccco2)nnc1SCC(=O)Nc1nccs1,inconclusive: 45.7%
